Patent publication US20210403565A1
No constants are given. Whether binding was seen depends on the method and setting. Some entries that bind do so weakly or less than the wild type.

Protein sequences, listed by entry. Tags and fused reporters are not part of them. Lines headed by an entry give the natural chain unless they say otherwise; changes in a name come on top. Chains listed by the source or under a name are the forms on record and can include a tag or linker.
cynomolgus CTLA4 expressed on the cell surface of CHO cells (G7PL88, form named): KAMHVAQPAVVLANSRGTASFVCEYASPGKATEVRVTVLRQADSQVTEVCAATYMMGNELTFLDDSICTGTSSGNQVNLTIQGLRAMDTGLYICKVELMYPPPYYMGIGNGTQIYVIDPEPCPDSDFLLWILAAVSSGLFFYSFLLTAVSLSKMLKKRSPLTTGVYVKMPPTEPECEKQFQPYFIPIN

Experiments:
[1] = target: cynomolgus CTLA4 expressed on the cell surface of CHO cells (cynomolgus) (UniProt G7PL88); assay: FACS saturation on CHO cells expressing cynomolgus CTLA4, pH 7.4
[2] = target: cynomolgus CTLA4 expressed on the cell surface of CHO cells (cynomolgus) (UniProt G7PL88); assay: FACS on CHO-cynoCTLA4 cells
[3] = target: cynomolgus CTLA4 expressed on the cell surface of CHO cells (cynomolgus) (UniProt G7PL88); assay: FACS on CHO-cynoCTLA4 cells, pH 7.4

Measured: binding

B1: BA-087-08-32 (antibody, V domains shown)
VH: EVQLVQSGAEVKKPGATVKISCKVSGFTFSHYTMHWIRQSPSRGLEWLGFISYDGNYKYYADSVKGRFTISRDNAKNSLYLQMNSLRAEDTAVYYCARTGWLGPFDYWGQGTLVTVSS
VL: EIVMTQSPATLSVSPGERATLSCRASQSVGSSYLAWYQQKPGKAPKLLIYGAFSRATGVPSRFSGSGSGTDFTLTISSLQPEDFATYYCQQDGSSPWTFGQGTKVEIK
binds: [1] | [2] | [3]

B2: BA-087-05-19 (antibody, V domains shown)
VH: EVQLVESGGGLVQPGGSLRLSCAASGFTFSHYTMHWVRQAPGKGLEWVSFISYDGNNKYYADSVKGRFTISRDNSKNTLYLQMNSLRAEDTAVYYCARTGWLGPFDYWGQGTLVTVSS
VL: AIQLTQSPSSLSASVGDRVTITCRASQYVGSSYLAWYLQKPGQSPQLLIYGAFSRATGIPARFSGSGSGTEFTLTISSLQSEDFAVYYCQQDGSSPWTFGQGTKVEIK
binds: [1] | [2] | [3]
